Source: patent US4385057A, “Diphenylbutyl-piperazinecarboxamides in pharmaceutical compositions and methods” (priority 1978, dated 1983)

Tests used:
thymus = test: Swim-test (stress-induced thymolymphatic involution); type: in vivo, mouse (NMRI female)
Description: If an animal is in a stage of exhaustion the rise in glucocorticoids induced by the stress causes thymolymphatic involution and elicites a characteristic change in blood count. […] In the experiments NMRI female mice were used with well-documented thymic glands. In the experiments the mice were divided in four groups. In the first group the mice were allowed to stay in their home cages all the time. In the second group saline-treated mice were repeatedly forced to swim in water at a temperature of +5° C. for 1 min. once every hour, 6 times per day for four days. In the third group the mice were pre-treated once with the test compound 10 min. before the first swim-test, otherwise the mice were manipulated in the same way as in the second group. In the fourth group the mice were adrenalectomized three days before the start of the swim tests. Otherwise also this group was manipulated as the second group. All mice were killed on the 5th day of the experiment and the weight of the thymic gland registered.

[1] = system: acetic acid induced writhing; test: Writhing test (analgetic properties); type: in vivo, mouse (NMRI female); conditions: Mus musculus, sc, read-out: ED50, mg/kg, s.c. (dose blocking the writhing behaviour in 50% of the animals)
Method: The writhing test is a frequently used test of analgetic properties (L. B. Witkin et al., J. Pharmacol. Exp. Ther. 133, 400 (1961)). If acetic acid (0.5%, 15 ml/kg) is injected intraperitoneally in mice (NMRI) they will without exception develop a writhing behaviour characterized by stretching their hind legs. The drugs to be tested were administered subcutaneously to 6 female mice at each dose 20 min. before the injection of the acetic acid. After 10 min. the behaviour of the mice was studied in 5 min. The ED50 value is the dose blocking the writhing behaviour in 50% of the animals during the 5 min. study period. [drawing 13]

Compound | protecting capacity against the induced stress (thymus; in words) | Relative weight of thymus, ×100 (thymus; pre-treatment dose 1.0 mg/kg, once 10 min before first swim-test, saline stressed 36, unstressed 66, Wilcoxon's ranking test) | ED50 [1] [mg/kg]
CN1C(=O)CN=C(c2ccccc2)c2cc(Cl)ccc21 [Diazepam] | less effective | 45 | 
CN1CC[C@]23c4c5ccc(O)c4O[C@H]2[C@@H](O)C=C[C@H]3[C@H]1C5 [Morphine] |  |  | 1.6
